According to the supplement of paper PMC12823440, “Inhibitors supercharge kinase turnover through native proteolytic circuits” (Nature, 2025):
This is one part of the list. Hit calls seldom repeat between salt and free forms of one compound.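 In K562 cells expressing nanoluciferase-fused kinases, luminescence was recorded at 4 h intervals between 2 and 18 h, normalized as percent of control with DMSO at 100% and a positive control at 0%. A significant (2 sigma) signal drop marks a time point as decreased. The authors' rule for a hit is not shown and takes in more than the number of time points.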

The chains behind the UniProt entries cited, without tags or fusion partners. Where a name states a change or a piece, a line headed by the entry shows the natural chain unless it says otherwise.
UniProt Q05397, whole entry, looked up: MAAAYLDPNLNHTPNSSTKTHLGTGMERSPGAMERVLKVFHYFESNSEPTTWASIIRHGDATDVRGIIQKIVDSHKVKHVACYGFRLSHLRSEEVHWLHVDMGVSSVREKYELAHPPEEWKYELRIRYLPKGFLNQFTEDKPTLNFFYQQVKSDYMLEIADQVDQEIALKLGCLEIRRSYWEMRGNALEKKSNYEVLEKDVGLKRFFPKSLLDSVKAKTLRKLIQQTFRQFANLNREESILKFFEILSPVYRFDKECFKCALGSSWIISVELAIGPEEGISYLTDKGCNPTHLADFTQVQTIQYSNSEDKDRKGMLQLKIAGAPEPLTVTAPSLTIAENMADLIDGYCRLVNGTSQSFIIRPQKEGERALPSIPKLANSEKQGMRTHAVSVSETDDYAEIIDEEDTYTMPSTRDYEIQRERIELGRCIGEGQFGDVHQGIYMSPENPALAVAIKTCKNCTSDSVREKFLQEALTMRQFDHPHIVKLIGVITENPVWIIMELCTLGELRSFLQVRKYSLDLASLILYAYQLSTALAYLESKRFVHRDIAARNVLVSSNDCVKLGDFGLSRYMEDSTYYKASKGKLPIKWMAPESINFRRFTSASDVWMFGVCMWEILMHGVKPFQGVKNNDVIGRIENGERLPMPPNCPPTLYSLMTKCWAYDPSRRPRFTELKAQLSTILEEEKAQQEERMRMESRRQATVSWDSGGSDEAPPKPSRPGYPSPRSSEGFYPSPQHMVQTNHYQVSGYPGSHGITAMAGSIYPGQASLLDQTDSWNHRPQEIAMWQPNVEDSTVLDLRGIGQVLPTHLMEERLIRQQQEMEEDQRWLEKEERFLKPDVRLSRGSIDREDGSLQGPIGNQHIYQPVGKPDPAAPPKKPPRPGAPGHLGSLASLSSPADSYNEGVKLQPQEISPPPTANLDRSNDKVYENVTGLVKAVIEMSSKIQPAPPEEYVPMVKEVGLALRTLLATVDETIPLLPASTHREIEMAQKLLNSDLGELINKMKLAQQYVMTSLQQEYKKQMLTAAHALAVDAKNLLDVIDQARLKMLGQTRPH
UniProt Q14289, whole entry, looked up: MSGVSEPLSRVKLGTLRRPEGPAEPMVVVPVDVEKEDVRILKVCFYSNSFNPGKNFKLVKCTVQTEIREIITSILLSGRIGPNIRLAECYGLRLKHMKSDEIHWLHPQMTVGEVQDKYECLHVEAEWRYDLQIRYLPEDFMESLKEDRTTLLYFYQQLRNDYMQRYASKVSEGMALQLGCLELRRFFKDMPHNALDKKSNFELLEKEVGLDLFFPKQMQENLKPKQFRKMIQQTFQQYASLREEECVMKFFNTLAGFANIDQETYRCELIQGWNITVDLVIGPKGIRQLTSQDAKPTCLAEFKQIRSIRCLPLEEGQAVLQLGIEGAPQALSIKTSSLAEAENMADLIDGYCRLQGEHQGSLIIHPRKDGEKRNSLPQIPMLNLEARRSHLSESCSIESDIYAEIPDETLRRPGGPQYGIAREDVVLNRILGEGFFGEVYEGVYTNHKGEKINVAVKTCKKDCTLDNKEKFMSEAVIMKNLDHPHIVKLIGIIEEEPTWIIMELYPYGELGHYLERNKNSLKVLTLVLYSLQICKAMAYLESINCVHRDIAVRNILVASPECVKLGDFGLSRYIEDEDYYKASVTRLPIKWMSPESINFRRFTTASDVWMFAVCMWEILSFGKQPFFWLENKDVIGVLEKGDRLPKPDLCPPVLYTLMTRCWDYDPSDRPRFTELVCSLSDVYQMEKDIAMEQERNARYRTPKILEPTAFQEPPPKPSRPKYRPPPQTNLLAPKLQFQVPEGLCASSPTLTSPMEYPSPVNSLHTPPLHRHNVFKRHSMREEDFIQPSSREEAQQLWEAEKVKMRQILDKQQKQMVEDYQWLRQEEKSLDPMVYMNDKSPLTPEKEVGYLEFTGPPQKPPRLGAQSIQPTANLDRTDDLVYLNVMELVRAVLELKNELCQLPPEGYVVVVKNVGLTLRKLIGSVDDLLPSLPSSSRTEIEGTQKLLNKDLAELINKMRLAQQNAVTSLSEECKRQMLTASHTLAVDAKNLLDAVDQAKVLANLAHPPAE
UniProt P07949, whole entry, looked up: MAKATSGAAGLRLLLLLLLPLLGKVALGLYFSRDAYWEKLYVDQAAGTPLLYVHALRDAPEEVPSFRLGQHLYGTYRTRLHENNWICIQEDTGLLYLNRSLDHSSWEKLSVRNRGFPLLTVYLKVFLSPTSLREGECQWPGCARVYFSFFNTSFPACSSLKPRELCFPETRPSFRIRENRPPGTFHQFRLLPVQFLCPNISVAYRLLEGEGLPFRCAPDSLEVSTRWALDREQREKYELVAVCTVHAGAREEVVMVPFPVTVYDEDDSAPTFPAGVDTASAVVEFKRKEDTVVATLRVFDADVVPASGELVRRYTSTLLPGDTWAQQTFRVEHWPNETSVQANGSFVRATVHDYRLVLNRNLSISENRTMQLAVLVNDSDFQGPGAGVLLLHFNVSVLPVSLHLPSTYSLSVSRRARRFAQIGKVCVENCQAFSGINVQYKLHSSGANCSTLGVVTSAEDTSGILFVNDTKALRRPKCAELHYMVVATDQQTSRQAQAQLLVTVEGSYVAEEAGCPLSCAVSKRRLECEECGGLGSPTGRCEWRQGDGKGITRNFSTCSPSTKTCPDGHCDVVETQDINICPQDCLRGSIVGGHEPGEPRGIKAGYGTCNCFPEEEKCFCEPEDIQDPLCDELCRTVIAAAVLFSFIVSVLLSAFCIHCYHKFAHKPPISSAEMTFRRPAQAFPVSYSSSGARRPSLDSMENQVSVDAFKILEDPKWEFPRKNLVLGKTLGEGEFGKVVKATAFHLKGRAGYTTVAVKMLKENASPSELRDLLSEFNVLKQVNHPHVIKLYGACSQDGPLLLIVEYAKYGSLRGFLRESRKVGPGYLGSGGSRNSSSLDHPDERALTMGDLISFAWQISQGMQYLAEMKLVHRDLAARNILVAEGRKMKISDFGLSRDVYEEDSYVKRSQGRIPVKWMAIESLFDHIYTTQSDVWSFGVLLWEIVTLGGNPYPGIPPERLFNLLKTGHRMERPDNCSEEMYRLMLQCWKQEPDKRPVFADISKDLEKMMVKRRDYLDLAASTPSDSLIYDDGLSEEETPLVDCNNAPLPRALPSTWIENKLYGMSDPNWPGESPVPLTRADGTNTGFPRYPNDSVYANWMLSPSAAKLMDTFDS
UniProt P07949, whole entry M918T, looked up: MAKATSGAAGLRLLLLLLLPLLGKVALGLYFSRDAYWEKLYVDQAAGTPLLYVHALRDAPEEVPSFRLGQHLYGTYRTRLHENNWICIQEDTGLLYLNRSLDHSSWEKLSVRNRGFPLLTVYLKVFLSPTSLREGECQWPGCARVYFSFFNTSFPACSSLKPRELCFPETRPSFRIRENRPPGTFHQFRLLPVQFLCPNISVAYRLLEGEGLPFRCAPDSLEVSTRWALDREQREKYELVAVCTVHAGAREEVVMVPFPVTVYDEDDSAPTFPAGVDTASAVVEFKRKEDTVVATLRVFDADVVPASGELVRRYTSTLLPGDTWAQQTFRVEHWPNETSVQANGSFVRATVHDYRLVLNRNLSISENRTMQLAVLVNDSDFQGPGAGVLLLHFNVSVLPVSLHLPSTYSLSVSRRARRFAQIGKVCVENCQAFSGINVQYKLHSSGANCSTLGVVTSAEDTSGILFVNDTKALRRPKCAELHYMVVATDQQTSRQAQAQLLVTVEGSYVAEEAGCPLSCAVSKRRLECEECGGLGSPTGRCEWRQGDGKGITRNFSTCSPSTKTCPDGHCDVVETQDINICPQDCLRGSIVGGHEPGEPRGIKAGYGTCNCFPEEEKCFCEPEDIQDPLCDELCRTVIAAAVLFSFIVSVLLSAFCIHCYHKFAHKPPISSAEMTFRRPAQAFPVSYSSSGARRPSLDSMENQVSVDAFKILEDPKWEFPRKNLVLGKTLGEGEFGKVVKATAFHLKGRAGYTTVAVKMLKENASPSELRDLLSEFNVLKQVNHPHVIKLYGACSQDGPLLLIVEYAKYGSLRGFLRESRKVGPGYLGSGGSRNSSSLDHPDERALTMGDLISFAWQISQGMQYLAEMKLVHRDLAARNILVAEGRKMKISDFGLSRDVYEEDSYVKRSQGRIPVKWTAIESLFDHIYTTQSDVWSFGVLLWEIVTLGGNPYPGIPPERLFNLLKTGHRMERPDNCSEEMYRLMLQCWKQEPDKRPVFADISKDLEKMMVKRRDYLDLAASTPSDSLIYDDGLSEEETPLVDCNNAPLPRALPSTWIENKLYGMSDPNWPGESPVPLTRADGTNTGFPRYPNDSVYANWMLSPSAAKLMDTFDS
UniProt Q9BRS2: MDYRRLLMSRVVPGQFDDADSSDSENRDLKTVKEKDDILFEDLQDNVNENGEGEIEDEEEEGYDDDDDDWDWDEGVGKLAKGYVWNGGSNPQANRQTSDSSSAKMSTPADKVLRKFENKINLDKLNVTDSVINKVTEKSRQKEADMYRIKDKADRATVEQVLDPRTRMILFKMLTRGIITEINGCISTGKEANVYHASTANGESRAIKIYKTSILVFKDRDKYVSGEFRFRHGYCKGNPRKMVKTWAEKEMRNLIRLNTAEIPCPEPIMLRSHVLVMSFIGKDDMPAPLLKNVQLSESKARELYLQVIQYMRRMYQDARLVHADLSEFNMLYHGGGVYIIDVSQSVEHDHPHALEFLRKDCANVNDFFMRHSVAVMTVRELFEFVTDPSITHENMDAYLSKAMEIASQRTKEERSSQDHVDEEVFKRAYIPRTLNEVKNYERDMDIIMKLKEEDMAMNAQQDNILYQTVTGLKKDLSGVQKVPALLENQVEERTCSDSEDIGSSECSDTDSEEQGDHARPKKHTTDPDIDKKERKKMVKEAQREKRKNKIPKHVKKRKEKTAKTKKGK
UniProt Q13546: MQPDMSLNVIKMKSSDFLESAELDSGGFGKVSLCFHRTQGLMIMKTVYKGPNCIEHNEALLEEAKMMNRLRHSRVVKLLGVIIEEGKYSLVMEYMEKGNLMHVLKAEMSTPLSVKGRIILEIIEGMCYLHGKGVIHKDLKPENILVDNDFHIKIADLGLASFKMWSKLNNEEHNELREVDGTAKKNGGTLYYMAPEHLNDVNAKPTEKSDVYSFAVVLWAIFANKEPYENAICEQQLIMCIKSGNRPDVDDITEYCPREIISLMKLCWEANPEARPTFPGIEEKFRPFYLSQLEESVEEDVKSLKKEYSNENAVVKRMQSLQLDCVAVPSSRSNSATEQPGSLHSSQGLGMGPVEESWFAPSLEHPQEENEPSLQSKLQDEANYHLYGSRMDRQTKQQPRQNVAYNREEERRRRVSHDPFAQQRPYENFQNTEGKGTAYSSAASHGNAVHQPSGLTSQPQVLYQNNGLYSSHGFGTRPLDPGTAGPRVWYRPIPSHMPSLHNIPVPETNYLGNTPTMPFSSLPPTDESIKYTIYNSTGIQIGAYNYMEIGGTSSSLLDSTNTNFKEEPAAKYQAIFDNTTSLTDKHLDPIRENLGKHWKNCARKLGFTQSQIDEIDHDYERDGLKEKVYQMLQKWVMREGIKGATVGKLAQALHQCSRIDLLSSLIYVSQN

Tests used:
Assay in all cases: number of time points (of 5) at which kinase-Nluc abundance scored as decreased, DMSO-normalised (count); higher = more persistent destabilization
Settings in all cases: K562; 2-18 h
PRKCA = PRKCA (UniProt P17252)
PTK2 = PTK2 (UniProt Q05397)
PTK2B = PTK2B (UniProt Q14289)
RAF1 = RAF1 (UniProt P04049)
[1] = target: RAF1_S257L (clone: RAF1_mut) (UniProt P04049)
RET = RET (UniProt P07949)
[2] = target: RET_M918T (clone: RET_mut) (UniProt P07949)
RIOK1 = RIOK1 (UniProt Q9BRS2)
RIPK1 = RIPK1 (UniProt Q13546)
RIPK2 = RIPK2 (UniProt O43353)

Measured: number of time points

Cn1cc(C2=C(c3ccc(Cl)cc3Cl)C(=O)NC2=O)c2ccccc21 (10 µM)
0: all assays above

CC1=CC(=O)C(C(C)C)=C/C1=N/OC(=O)c1ccccc1C [Poloxin] (2.5 µM)
0: all assays above

CCOC(=O)c1c(Nc2ccccc2Cl)oc(/C=C2\C=Nc3ncccc32)c1O (10 µM)
0: all assays above

O=C1OC(COc2ccccc2[N+](=O)[O-])CC1Cc1ccccc1 (stereo unspecified) (10 µM)
0: all assays above

COCCNc1cc(NC(=O)N2CCCc3cc(CN4CCOCC4=O)c(C=O)nc32)ncc1C#N (10 µM)
0: all assays above

CC(C)(CCCCCC(O)CCCCCC(C)(C)C(=O)O)C(=O)O [Bempedoic acid] (10 µM)
0: all assays above

CCCS(=O)(=O)N[C@H]1C[C@@H](N(C)c2ncnc3[nH]ccc23)C1 [Abrocitinib] (10 µM)
0: all assays above

COc1ccc(Cl)cc1N(CC(=O)Nc1ccc2c(c1)OCO2)S(=O)(=O)c1ccccc1 (2.5 µM)
0: all assays above

Cn1cnc2c(F)c(Nc3ccc(Br)cc3F)c(C(=O)NOCCO)cc21 [Binimetinib] (10 µM)
4: [1]
0: all other assays above

C[C@@H](NC(=O)c1ncnc(N)c1Cl)c1ncc(C(=O)Nc2cc(C(F)(F)F)c(Cl)cn2)s1 (2.5 µM)
3: RIOK1 | RIPK1
2: PTK2 | RET
0: PRKCA | PTK2B | [2]
4: RIPK2

CN(C[C@@H]1COCCO1)S(=O)(=O)Nc1ccc2ccc3ncc(-c4cnn(C)c4)cc3c(=O)c2c1 (2.5 µM)
not listed: RET | [2]
0: all other assays above

Cc1cccc(CC(=O)N2CCc3c2ccc(-c2cn(C)c4ncnc(N)c24)c3F)n1 (10 µM)
3: PTK2
0: all other assays above

Fc1ccc(-c2nc3n(c2-c2ccncc2)CCS3)cc1 (10 µM)
0: all assays above
